Source: paper PMC12975129

Protein sequences, listed by entry. Tags and fused reporters are not part of them. Lines headed by an entry give the natural chain unless they say otherwise; changes in a name come on top.
UniProt Q586J9: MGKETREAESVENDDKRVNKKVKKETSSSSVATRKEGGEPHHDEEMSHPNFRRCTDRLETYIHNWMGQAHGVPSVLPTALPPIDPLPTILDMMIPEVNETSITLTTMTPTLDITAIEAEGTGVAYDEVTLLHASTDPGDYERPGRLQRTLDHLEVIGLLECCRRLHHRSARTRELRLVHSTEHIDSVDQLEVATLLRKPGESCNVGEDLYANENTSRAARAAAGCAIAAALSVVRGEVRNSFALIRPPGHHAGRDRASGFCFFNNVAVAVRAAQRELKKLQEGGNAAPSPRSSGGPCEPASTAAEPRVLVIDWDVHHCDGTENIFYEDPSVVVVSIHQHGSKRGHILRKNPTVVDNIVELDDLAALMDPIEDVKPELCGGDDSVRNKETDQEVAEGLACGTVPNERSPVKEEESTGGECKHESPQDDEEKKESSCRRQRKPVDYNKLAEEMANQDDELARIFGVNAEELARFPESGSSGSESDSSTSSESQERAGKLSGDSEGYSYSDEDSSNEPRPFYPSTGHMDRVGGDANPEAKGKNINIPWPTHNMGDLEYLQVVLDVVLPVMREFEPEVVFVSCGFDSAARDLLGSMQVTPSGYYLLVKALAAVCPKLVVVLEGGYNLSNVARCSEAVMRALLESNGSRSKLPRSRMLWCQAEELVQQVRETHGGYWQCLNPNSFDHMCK
UniProt Q57ZF2: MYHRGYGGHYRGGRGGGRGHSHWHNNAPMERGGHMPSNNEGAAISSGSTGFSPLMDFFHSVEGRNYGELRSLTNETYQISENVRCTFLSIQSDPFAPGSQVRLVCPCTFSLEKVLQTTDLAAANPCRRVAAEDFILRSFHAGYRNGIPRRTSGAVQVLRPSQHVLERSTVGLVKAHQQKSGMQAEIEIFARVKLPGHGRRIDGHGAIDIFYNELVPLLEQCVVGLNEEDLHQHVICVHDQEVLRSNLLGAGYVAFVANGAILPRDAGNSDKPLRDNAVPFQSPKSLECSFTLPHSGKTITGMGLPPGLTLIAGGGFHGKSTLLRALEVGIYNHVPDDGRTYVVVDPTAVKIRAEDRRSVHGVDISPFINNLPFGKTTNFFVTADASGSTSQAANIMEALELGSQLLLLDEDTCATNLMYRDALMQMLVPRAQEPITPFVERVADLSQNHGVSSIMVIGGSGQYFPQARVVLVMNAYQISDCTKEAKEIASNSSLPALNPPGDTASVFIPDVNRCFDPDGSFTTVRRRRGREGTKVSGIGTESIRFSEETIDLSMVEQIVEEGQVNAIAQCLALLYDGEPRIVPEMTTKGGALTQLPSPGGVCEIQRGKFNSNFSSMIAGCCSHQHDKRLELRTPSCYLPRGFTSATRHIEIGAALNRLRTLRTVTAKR
UniProt O96971: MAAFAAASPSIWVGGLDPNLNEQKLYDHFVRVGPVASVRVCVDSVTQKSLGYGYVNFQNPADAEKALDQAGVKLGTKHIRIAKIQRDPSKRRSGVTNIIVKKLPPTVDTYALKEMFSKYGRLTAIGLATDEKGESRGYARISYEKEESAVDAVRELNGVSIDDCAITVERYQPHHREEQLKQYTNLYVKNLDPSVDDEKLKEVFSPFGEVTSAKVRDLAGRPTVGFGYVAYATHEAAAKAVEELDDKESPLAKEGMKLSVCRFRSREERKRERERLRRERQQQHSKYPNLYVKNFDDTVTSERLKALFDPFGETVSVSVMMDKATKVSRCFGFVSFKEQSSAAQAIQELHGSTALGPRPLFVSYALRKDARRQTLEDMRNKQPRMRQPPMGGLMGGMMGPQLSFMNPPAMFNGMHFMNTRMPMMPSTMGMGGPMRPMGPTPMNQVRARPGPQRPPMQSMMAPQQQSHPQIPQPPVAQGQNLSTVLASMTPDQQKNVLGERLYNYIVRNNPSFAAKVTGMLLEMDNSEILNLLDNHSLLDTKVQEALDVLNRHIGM
UniProt Q38BZ3: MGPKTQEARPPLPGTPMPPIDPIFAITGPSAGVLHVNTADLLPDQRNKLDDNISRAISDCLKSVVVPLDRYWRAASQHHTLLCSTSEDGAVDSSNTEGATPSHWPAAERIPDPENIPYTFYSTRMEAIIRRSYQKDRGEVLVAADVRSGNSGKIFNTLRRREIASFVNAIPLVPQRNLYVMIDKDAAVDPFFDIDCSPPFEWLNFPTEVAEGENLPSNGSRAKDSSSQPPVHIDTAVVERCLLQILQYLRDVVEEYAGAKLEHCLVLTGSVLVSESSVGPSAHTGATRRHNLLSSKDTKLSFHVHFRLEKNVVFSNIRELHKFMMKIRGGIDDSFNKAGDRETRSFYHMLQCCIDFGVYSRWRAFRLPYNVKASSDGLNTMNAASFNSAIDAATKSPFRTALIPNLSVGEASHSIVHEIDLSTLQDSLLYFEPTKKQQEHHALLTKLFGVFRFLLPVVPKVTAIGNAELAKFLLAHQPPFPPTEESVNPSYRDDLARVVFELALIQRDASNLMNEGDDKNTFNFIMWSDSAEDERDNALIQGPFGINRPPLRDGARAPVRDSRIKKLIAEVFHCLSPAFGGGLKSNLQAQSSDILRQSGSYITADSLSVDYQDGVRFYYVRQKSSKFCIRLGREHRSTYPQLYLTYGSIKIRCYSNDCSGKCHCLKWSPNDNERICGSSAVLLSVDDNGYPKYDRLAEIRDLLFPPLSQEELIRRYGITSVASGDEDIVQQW
UniProt Q384B5: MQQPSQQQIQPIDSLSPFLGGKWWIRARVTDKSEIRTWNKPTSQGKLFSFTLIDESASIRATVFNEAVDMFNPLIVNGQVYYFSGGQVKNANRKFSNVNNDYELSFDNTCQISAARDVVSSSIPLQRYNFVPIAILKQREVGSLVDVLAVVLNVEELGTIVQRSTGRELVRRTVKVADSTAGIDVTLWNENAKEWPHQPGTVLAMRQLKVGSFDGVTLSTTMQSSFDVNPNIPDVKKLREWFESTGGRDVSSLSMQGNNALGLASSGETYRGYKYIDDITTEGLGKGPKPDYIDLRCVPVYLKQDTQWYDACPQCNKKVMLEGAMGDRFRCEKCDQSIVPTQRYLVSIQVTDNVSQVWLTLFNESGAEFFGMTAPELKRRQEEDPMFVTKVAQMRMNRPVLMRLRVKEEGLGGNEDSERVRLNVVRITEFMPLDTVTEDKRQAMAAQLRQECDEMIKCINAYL
UniProt Q38DK0: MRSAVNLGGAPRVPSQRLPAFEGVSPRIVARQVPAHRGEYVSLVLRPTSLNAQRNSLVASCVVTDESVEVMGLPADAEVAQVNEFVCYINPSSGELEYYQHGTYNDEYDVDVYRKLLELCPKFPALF
UniProt Q57XY9: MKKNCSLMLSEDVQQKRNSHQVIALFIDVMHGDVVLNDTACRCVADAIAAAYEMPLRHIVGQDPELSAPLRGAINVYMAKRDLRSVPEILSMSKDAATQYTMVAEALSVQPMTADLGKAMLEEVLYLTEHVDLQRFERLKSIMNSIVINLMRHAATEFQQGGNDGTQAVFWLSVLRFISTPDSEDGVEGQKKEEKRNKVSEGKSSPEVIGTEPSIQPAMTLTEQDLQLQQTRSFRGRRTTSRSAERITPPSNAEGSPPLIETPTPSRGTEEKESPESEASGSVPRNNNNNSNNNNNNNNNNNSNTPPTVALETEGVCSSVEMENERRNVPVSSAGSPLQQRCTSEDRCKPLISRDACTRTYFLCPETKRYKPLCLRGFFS
UniProt Q383U2: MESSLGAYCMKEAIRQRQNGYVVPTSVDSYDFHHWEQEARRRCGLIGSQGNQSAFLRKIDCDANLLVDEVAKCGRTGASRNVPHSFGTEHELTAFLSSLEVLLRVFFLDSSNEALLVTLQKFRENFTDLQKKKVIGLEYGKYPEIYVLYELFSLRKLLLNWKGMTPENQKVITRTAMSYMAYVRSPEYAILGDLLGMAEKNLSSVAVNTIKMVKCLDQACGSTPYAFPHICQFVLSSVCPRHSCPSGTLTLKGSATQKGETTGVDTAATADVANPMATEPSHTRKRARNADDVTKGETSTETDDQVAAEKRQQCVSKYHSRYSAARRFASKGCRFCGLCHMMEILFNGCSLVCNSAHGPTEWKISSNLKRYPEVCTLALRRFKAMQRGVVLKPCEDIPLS
UniProt Q586Z9: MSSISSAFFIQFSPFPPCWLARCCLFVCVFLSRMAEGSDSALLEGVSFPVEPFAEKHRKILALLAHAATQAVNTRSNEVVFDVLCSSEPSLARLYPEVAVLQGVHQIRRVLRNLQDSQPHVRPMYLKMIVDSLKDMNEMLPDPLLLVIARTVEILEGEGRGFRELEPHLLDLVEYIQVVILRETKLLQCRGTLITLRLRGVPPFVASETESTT
UniProt Q388B3: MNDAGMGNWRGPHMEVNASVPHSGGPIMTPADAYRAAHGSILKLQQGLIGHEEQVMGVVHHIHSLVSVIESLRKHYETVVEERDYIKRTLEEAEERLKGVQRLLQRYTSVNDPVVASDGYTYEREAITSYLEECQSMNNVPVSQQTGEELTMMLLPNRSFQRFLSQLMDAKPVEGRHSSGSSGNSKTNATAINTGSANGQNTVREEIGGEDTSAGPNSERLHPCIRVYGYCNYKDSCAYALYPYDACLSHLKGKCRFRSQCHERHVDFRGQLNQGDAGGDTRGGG
UniProt Q388B1: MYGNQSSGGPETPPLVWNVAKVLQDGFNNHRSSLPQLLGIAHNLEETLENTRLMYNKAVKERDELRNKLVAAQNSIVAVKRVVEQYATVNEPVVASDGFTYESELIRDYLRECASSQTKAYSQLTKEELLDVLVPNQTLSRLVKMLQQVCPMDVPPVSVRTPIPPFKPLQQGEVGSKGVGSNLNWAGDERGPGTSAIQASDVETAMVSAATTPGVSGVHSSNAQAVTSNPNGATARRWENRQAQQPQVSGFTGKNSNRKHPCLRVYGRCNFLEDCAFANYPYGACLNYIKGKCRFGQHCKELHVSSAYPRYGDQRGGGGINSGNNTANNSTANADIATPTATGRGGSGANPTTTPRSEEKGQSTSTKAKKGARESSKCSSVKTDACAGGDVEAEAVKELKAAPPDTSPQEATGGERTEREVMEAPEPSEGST

biological target: T1, YFP-TRF (YFP-tagged T. brucei TRF telomere repeat binding protein) (T. brucei (Lister 427)) (UniProt Q4VHG6); assay: affinity purification with mass spectrometry; YFP-tagged bait captured on beads cross-linked to mouse anti-GFP antibody (Roche) from the soluble fraction of briefly sonicated lysate of 3.5x10^8 cells; 0.2% NP-40, 150 mM KCl; 1 hr at 4°C; three washes with lysis buffer; LC-MS/MS, enrichment relative to the No-YFP tag control; three biological replicates
T1 sequence: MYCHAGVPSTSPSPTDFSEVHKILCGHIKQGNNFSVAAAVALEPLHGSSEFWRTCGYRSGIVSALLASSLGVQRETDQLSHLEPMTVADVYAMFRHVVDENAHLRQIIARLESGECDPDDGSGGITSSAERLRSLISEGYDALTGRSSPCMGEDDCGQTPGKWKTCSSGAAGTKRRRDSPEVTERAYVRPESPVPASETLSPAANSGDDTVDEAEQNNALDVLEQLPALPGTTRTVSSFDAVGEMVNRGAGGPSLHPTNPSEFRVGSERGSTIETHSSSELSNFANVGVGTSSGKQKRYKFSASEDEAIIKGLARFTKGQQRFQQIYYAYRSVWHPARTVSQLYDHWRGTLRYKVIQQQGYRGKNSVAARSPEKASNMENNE

Row | Molecule | binding
1 | HDAC3 (from UniProt Q586J9) | binds
2 | MRB1590 (from UniProt Q57ZF2) | binds
3 | PABP2 (from UniProt O96971) | binds
4 | PPL2 (PrimPol-Like protein 2) (from UniProt Q38BZ3) | binds
5 | PolQ/PolIE | binds
6 | RPA1 (from UniProt Q384B5) | no binding
7 | RPA3 (from UniProt Q38DK0) | no binding
8 | TIF2 (from UniProt Q57XY9) | binds
9 | TelAP1 (from UniProt Q383U2) | binds
10 | TelAP2 (from UniProt Q586Z9) | binds
11 | TelAP3 | binds
12 | ZC3H39 (from UniProt Q388B3) | binds
13 | ZC3H40 (from UniProt Q388B1) | binds
14 | RAP1 (protein, UniProt C1JEX5 1-855) MTDVDGGSGASWKRLRFFVCADTLLTFQPVDSSHLEGRPGQPEQRYLLVDGEYRPITSYPTSSLFLETLKLAGSTVVVIAPWKRAKTKKLLSLFGWTAFDEIRSIHPEPGRDKLHLACIGCSADEYSTSVIVATSRADWSPSMYPQLVEVKHGVNQVPHSLALLRALSSCLRLAEWQVRLPHVPISSCATLCRSRLFSHCRFFLEPVASEDATVALSINEHGGYIVTRREDATHCVVSGSLPNLPGDISNLPPGGCAAKAVKECSVLPTSAEGRSAEPKSAKVDTDSVSLVKNQVDESDDSIKDEFSYSAGNAATAMVECGDEGVWNEENADDEDPVTMIPPGTFSEDDEDDAPGGLEEADGETVTTVTTQWLKDCAEGLFMYPPQVSHTSKDGSDWNITGLLLATILPTSDAEPLLLSSFNTFAERSGFEPLQLNSADEGGLAEVMQRQWGGVLCMEEKDGDFLLSQTNIYTEAFSDEMDKHLTFVANRFCEAWKDAVQRRRALLGSDAGTQTTVSITVTFGTNTEVEVAPSVQPPPPPPPAPQPTTASAAANEGSKESATPALPFLMRALGPAEWAKEVEAPRSPPPSAVPDIPLKQDPVPSGEGVATAENSVGNDQKESTSRQVAGDAGDTANVAEATEEIAALDQPFEKCFIPTEALGSDREGLDRTQLERQLPFRNYPIKLNVSKSGIFCQFPTVSDAKRFYEEGTVEILNRSLPIKPVFEKRNETVAPAERKRRRSVSPGGVHPQTAAVSALSRRGIQGATYARTQRSRTDNGWKAEGDRNPFVLTEEENSLLTSLGITYTYALENVPLLEHYAQKDLSSKVYRKEKGVLVKMLEKLKAVKGTTSKAPQ | binds

Results are given in words; binding and its absence hold for the method and conditions named. Binding seen in cells or lysates may run through a third protein. Here binding means that the protein was enriched with, or labelled near, the bait; the list need not be complete. A no says only that the protein was not detected with the bait. Tags and fused reporters may be left off the sequences shown.
